Experiments:
[1] = tested on: TGF-β1-induced myofibroblast ECM protein production, cells derived from TA tissue; experiment: ECM production assay; format: cell-based; conditions: Homo sapiens, 168 h; 10 ng/ml TGF-β1 for 7 days; read-out: IC50, TGF-β1-induced ECM protein production: collagen III
Method: Cells were seeded onto 96 well optical flat bottom black microplates (Nunc, Fisher Scientific, UK) at 5×10^3 cells per well. After overnight attachment, they were stimulated with or without 10 ng/ml TGF-β1 and/or compounds for 7 days. DRAQS in PBS (1:1,000) was added and cells were incubated for 5 min at 37° C., 5% CO2 before scanning the plate to obtain nuclear staining. […] Afterwards ECM was stained either with Coomassie Blue (total ECM) overnight at 4° C. or with primary antibodies (collagen I, abcam; collagen III, Millipore; collagen V, abcam: fibronectin, Millipore) at 1:1000 for 1 h on a shaker, followed by incubation with secondary antibody and scanning the plate using an infrared imaging system (Odyssey CLx imager, LI-COR, UK) at both the 700 nm and 800 nm wavelengths. Results were normalized to the cell number before lysis.

[2] = tested on: fibroblasts isolated from human tunica albuginea (TA); TGF-β1-induced myofibroblast transformation; experiment: In Cell ELISA (ICE) phenotypic screening assay of TGF-β1-induced myofibroblast transformation (α-SMA/DNA staining); format: cell-based; conditions: Fibroblast, co-incubation with 10 ng/ml TGF-β1 for 72 hours, α-SMA/DNA staining ratio, read-out: IC50, inhibition of TGF-β1-induced myofibroblasts transformation
Description: Tunica albuginea tissue samples were collected from patients undergoing surgery at University College London Hospital (UCLH), London, UK for penile cancer or PD. All patients gave fully informed written consent to the study. The study was approved by independent research ethics committees (NRES Committee East of England 12/EE/0170 and NRES Committee North of Scotland 15/NS/0051). PD plaque tissue was obtained from patients with chronic PD undergoing a Lue procedure (plaque incision and grafting). Plaque tissue would have otherwise been discarded. Non-plaque TA was obtained from PD patients undergoing a Nesbit procedure whereby non-fibrotic TA tissue was excised from the opposite side of the plaque. TA tissue samples from patients with penile cancer were taken from the proximal side away from the tumour, with the tumour showing negative margins on histological examination.
Tissue samples were carefully dissected to ensure that all cavernosal tissue was removed from the tunica albuginea (TA). To establish fibroblast cultures, TA fragments were seeded in 6-well tissue culture plates (Nunc, Fisher Scientific, UK) as described previously16. The tissue pieces were incubated in DMEM-F12 (GIBCO, Invitrogen, UK) containing 10% FCS (Fisher Scientific, UK) and 1% penicillin-streptomycin (GIBCO, Invitrogen, UK) at 37° C., 5% CO2 for 5-7 days. […]

`CC/C(=C(\c1ccccc1)c1ccc(OCCN(C)C)cc1)c1ccccc1` [tamoxifen] showed an IC50 [1] of 5.3 µM and an IC50 [2] of 11.9 µM.
